We go through one compound from US10520514B2, “Method for monitoring post-translational modification of protein” (KOREA INSTITUTE OF SCIENCE AND TECHNOLOGY, priority 2017, dated 2019).

Molecules are shown by their SMILES.

This series has as its system phosphorylated tau. Description: Nanogap biosensor impedance of microbeads bound to tau protein, reacted with AT8 antibody. Type of series: biochemical. Conditions: 100 uM Thiamet G, tau protein 0.5 pg/ml. As to the method:
A tosylate-treated magnetic bead (Thermo Fisher, Dynabead M-280, diameter 2.8 μm, 14203) and a tau protein binding antibody (abcam, Anti-Tau (Phosphor S262) antibody, ab64193, 50 μl/250 μl) are inserted in a 0.1 M PBS buffer and placed in a 37° C. incubator, and incubated on a roll mixer for 24 hours.
Next, the magnetic bead bound to the tau protein binding antibody are washed with 0.4% Block ACE (AbD serotec, USA) and blocked with 0.2 M tris buffer. 30 mg/mL of the microbead solution was stored in PBST (Phosphate Buffered Saline with Tween-20, 0.01% Tween-20) containing 0.4% Block Ace.
The tau protein at a concentration of 5250 ng/mL was diluted 1/10 in various concentrations (0.5 fg/mL to 50 pg/mL) using 0.1% PBST. Tau protein was treated with Thiamet G, an O-glycosylation drug, if necessary.
The microbead bound to the tau protein binding antibody were diluted to 300 μl/ml using 0.1% PBST, and the tau protein (diluent) and the microbead (diluent) were mixed at a concentration of 1:2 and reacted in a refrigerator for 22 hours.
Next, the microbead bound to the tau protein is washed twice with 0.1% PBST and washed twice with PBS (Phosphate Buffered Saline). Thereafter, it is diluted to a bead concentration of 60 μl/ml using PBS. […]
The samples thus obtained were measured for impedance using a biosensor array (10×10 or 20×20) with an electrode interval of 0.7 μm. […]

Compound `CCN=C1N[C@@H]2[C@@H](O)[C@H](O)[C@@H](CO)O[C@@H]2S1` [Thiamet G] yielded a BAT2 impedance of 35.54 MΩ and a BAT impedance of 36.13 MΩ.
